One assay has as its target SIRT6-ΔN (43-355aa) (UniProt Q8N6T7). The assay is described as follows: co-IP; HEK293T cells transfected with Flag-tagged SIRT6 or truncations plus HA-tagged RORγt, 24 h; IP with antibody to Flag.
For assay [1], the target named is SIRT6 co-expressed with RORγt or RORγt-ΔPY in HEK293T cells (UniProt Q8N6T7). The assay is described as follows: co-IP; HEK293T cells transfected with combinations of plasmids (SIRT6, RORγt, RORγt-ΔPY); IP with anti-Flag, immunoblot with anti-HA or anti-Flag.

By UniProt entry, the sequences of proteins in these tests, tags left out. Where a name states a change or a piece, a line headed by the entry shows the natural chain unless it says otherwise. Chains listed by the source or under a name are the forms on record and can include a tag or linker.
UniProt Q8N6T7: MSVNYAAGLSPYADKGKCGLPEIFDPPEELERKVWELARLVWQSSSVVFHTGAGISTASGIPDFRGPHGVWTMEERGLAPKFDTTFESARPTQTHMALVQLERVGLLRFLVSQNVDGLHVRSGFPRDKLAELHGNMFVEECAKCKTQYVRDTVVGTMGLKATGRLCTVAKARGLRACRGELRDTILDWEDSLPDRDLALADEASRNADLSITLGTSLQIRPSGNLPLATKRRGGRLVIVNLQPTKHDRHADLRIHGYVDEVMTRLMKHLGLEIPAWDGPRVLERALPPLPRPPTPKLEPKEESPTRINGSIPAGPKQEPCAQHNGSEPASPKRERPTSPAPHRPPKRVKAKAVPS
HA-tagged RORγt, expressed in HEK293T cells (P51449-2, form named): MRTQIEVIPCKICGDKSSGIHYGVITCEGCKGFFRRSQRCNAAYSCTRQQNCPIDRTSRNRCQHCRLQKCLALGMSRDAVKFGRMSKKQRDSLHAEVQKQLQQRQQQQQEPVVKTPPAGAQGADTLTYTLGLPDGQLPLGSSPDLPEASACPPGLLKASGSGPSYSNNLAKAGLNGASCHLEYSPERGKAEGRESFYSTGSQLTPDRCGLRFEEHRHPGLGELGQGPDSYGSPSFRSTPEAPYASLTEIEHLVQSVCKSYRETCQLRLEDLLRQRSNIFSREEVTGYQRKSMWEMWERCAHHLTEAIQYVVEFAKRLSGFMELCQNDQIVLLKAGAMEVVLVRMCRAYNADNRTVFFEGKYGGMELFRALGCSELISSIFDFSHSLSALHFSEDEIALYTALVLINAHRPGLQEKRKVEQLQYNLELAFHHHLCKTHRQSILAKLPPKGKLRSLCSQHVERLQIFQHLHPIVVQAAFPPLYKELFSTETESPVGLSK

No constants are given. Whether binding was seen depends on the method and setting. Binding seen in cells or lysates may run through a third protein. For some assays here: Binding can be weak; no strength is given.

Here are results for two substances from PMC10746710.

In the case of “HA-tagged RORγt, expressed in HEK293T cells (from UniProt P51449-2 1-497)”, the binding result with SIRT6-ΔN (43-355aa) is on record as “binds”. Regarding “RORγt-ΔPY (deletion of amino acids 476-479 of the PPXY motif) (from UniProt P51449-2)”, the binding entry in assay [1] was “no binding”.
